PubChem BioAssay AID1053208 – Peter MacCallum Cancer Centre | 2014
Test: 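Genes whose silencing cuts survival of bone tumour cells only with doxorubicin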 (primary screen). Cell system: mouse osteosarcoma cells, early-passage culture from an engineered mouse model of fibroblastic bone tumour. Knock-down reagent: siRNA pool against mouse genes, 40 nM. Timing: about 120 h (48 h before drug, then 72 h with drug). Challenge: doxorubicin 100 nM for 72 h, roughly 30-40% inhibitory dose. Detection: 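Luminescent ATP signal taken as viability with or without 100 nM doxorubicin for 72 h; mean of two wells set against non-targeting siRNA and turned into robust z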. Reading the numbers: viability z-score with doxorubicin and doxorubicin viability vs non-targeting: higher = more viable cells under doxorubicin; viability z-score without drug: higher = more viable cells with knock-down alone; z-score of drug to no-drug ratio: higher = less drug sensitisation by knock-down. Rule for the call: 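a pool counts as active when its viability z-score with doxorubicin is -2 or below and its z-score without drug lies between -2 and 2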.
Shown is an unselected part of about 17,000 reagents. In the full data, 788 (4.7%) got an active call. 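Calls rest on z-score classes alone; an extra cut-off of viability at most 70% of control was not applied to them.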 Unmarked entries are inactive. Reagent sequences are not shown.

target gene | combined z-score class | viability z-score with doxorubicin | viability z-score without drug | z-score of drug to no-drug ratio | doxorubicin viability vs non-targeting
Cst8 (cystatin 8 (cystatin-related epididymal spermatogenic)) | no change with or without drug | 0.9 | 0.84 | 0.45 | 1.02
Dct (dopachrome tautomerase) | no change with or without drug | 1.8 | 1.52 | 0.9 | 1.1
Blvrb (biliverdin reductase B) | no change with or without drug | 0.67 | 0.51 | 0.45 | 1
Zfp24 (zinc finger protein 24) | no change with or without drug | 0.67 | 0.84 | 0.22 | 1
Tfdp1 (transcription factor Dp 1) | no change with or without drug | -0.11 | 0.84 | -0.56 | 0.93
4933404G15Rik (RIKEN cDNA 4933404G15 gene) | no change with or without drug | -0.22 | 0.67 | -0.56 | 0.92
Glud1 (glutamate dehydrogenase 1) | no change with or without drug | -0.56 | -0.51 | -0.11 | 0.89
Mtx2 (metaxin 2) | no change with or without drug | -1.46 | -1.18 | -0.67 | 0.81
Pmpca (peptidase (mitochondrial processing) alpha) | no change with or without drug | 0.45 | -0.34 | 0.79 | 0.98
Gdap1l1 | no change with or without drug | 0 | 1.18 | -0.67 | 0.94
Phex (phosphate regulating endopeptidase homolog, X-linked) | no change with or without drug | 0.45 | -0.17 | 0.67 | 0.98
4833414E09Rik (RIKEN cDNA 4833414E09 gene) | no change with or without drug | -0.79 | -0.51 | -0.34 | 0.87

In a second layout: results already given
| target gene | combined z-score class | viability z-score with doxorubicin | viability z-score without drug | z-score of drug to no-drug ratio | doxorubicin viability vs non-targeting |
| --- | --- | --- | --- | --- | --- |
| Dct (dopachrome tautomerase) | no change with or without drug | 1.8 | 1.52 | 0.9 | 1.1 |
| Blvrb (biliverdin reductase B) | no change with or without drug | 0.67 | 0.51 | 0.45 | 1 |

Continued.
target gene | combined z-score class | viability z-score with doxorubicin | viability z-score without drug | z-score of drug to no-drug ratio | doxorubicin viability vs non-targeting
Armc12 (armadillo repeat containing 12) | no change with or without drug | -1.8 | -1.52 | -0.79 | 0.78
Bcor (BCL6 interacting corepressor) | no change with or without drug | 0.45 | -0.17 | 0.67 | 0.98
Asb10 (ankyrin repeat and SOCS box-containing 10) | no change with or without drug | 1.12 | 0.51 | 0.9 | 1.04
Cdc20 (cell division cycle 20) | low cell count with doxorubicin only (active) | -2.25 | -0.17 | -2.14 | 0.74
Stk11ip (serine/threonine kinase 11 interacting protein) | no change with or without drug | -0.67 | 0.67 | -1.01 | 0.88
Gna13 (guanine nucleotide binding protein, alpha 13) | no change with or without drug | -0.45 | 1.18 | -1.12 | 0.9
Npbwr1 (neuropeptides B/W receptor 1) | no change with or without drug | 0 | 1.18 | -0.67 | 0.94
Vmac | no change with or without drug | -0.45 | -0.34 | -0.11 | 0.9
